This note sets out measurements from patent US20240400715A1.

No constants are given. Whether binding was seen depends on the method and setting. For some of these results: A result given as binding can be weak or reduced; the word gives no strength.

Assay [1] concerns the target human CD3ε/δ (ACRO systems, CDD-H52W1) (human). Put plainly: ELISA, coated antigen. (In an ELISA, binding on a coated surface is turned into a signal by an enzyme label.)
The next assay addresses Insulin (abs42019847). Put plainly: condition: ratio to PBS blank below 3; 100 nM antibody; ELISA on coated insulin.

B1: 305 (TA6), configuration of FIG. 1W (bispecific antibody, IgG4)
heavy: EVQLVQSGAEVKKPGASVKVSCKASGYTFTNYYIHWVRQAPGQGLEWIGWIYPGDGNTKYNEKFKGRATLTADTSTSTAYLELSSLRSEDTAVYYCARDSYSNYYFDYWGQGTLVTVSSASTKGPSVFPLAPCSRSTSESTAALGCLVKDYFPEPVTVSWNSGALTSGVHTFPAVLQSSGLYSLSSVVTVPSSSLGTKTYTCNVDHKPSNTKVDKRVESKYGPPCPPCPAPEAAGGPSVFLFPPKPKDTLMISRTPEVTCVVVDVSQEDPEVQFNWYVDGVEVHNAKTKPREEQFNSTYRVVSVLTVLHQDWLNGKEYKCKVSNKGLPSSIEKTISKAKGQPREPQVYTLPPCQEEMTKNQVSLWCLVKGFYPSDIAVEWESNGQPENNYKTTPPVLDSDGSFFLYSRLTVDKSRWQEGNVFSCSVMHEALHNHYTQKSLSLSL
chain: EVQLVESGGGFVQAGESLTLSCTSSTLTFTPYRMAWYRQAPGKQRDLVADISSGDGRTTNYADFAKGRFTISRDNIKNTVFLRMTNLKPEDTAVYYCNTFVSFVGIARSWGQGTQVTVSSESKYGPPCPPCPAPEAAGGPSVFLFPPKPKDTLMISRTPEVTCVVVDVSQEDPEVQFNWYVDGVEVHNAKTKPREEQFNSTYRVVSVLTVLHQDWLNGKEYKCKVSNKGLPSSIEKTISKAKGQPREPQVCTLPPSQEEMTKNQVSLSCAVKGFYPSDIAVEWESNGQPENNYKTTPPVLDSDGSFFLVSRLTVDKSRWQEGNVFSCSVMHEALHNRFTQKSLSLSL
light: DIVMTQSPDSLAVSLGERATINCKSSQSLLNSRTRKNYLAWYQQKPGQPPKLLIYWASTRESGVPDRFSGSGSGTDFTLTISSLQAEDVAVYYCTQSFILRTFGQGTKVEIK
B1: in assay [1], the binding entry is on record as “binds”.

B2: CEA-Knob+Fab-Hole (104) (bispecific antibody, human IgG4 S228P, kappa, F234A L235A)
chain: EVQLVESGGGFVQAGESLTLSCTSSTLTFTPYRMAWYRQAPGKQRDLVADISSGDGRTTNYADFAKGRFTISRDNIKNTVFLRMTNLKPEDTAVYYCNTFVSFVGIARSWGQGTQVTVSSESKYGPPCPPCPAPEAAGGPSVFLFPPKPKDTLMISRTPEVTCVVVDVSQEDPEVQFNWYVDGVEVHNAKTKPREEQFNSTYRVVSVLTVLHQDWLNGKEYKCKVSNKGLPSSIEKTISKAKGQPREPQVYTLPPCQEEMTKNQVSLWCLVKGFYPSDIAVEWESNGQPENNYKTTPPVLDSDGSFFLYSRLTVDKSRWQEGNVFSCSVMHEALHNHYTQKSLSLSL
heavy: EVKLLESGGGLVQPKGSLKLSCAASGFTFNTYAMNWVRQAPGKGLEWVARIRSKYNNYATYYADSVKDRFTISRDDSQSILYLQMNNLKTEDTAMYYCVRHGNFGNSYVSWFAYWGQGTLVTVSSASTKGPSVFPLAPCSRSTSESTAALGCLVKDYFPEPVTVSWNSGALTSGVHTFPAVLQSSGLYSLSSVVTVPSSSLGTKTYTCNVDHKPSNTKVDKRVESKYGPPCPPCPAPEAAGGPSVFLFPPKPKDTLMISRTPEVTCVVVDVSQEDPEVQFNWYVDGVEVHNAKTKPREEQFNSTYRVVSVLTVLHQDWLNGKEYKCKVSNKGLPSSIEKTISKAKGQPREPQVCTLPPSQEEMTKNQVSLSCAVKGFYPSDIAVEWESNGQPENNYKTTPPVLDSDGSFFLVSRLTVDKSRWQEGNVFSCSVMHEALHNRFTQKSLSLSL
light: QAVVTQESALTTSPGETVTLTCRSSTGAVTTSNYANWVQEKPDHLFTGLIGGTNKRAPGVPARFSGSLIGDKAALTITGAQTEDEAIYFCALWYSNLWVFGGGTKVEIKRTVAAPSVFIFPPSDEQLKSGTASVVCLLNNFYPREAKVQWKVDNALQSGNSQESVTEQDSKDSTYSLSSTLTLSKADYEKHKVYACEVTHQGLSSPVTKSFNRGEC
For B2, the binding result with Insulin (abs42019847) is on record as “no binding”.

B3: 311 (TA6), configuration of FIG. 1X (bispecific antibody, IgG4)
heavy: EVQLVQSGAEVKKPGASVKVSCKASGYTFTNYYIHWVRQAPGQGLEWIGWIYPGDGNTKYNEKFKGRATLTADTSTSTAYLELSSLRSEDTAVYYCARDSYSNYYFDYWGQGTLVTVSSASTKGPSVFPLAPCSRSTSESTAALGCLVKDYFPEPVTVSWNSGALTSGVHTFPAVLQSSGLYSLSSVVTVPSSSLGTKTYTCNVDHKPSNTKVDKRVESKYGPPCPPCPAPEAAGGPSVFLFPPKPKDTLMISRTPEVTCVVVDVSQEDPEVQFNWYVDGVEVHNAKTKPREEQFNSTYRVVSVLTVLHQDWLNGKEYKCKVSNKGLPSSIEKTISKAKGQPREPQVYTLPPCQEEMTKNQVSLWCLVKGFYPSDIAVEWESNGQPENNYKTTPPVLDSDGSFFLYSRLTVDKSRWQEGNVFSCSVMHEALHNHYTQKSLSLSLGGGGSGGGGSEVQLVESGGGFVQAGESLTLSCTSSTLTFTPYRMAWYRQAPGKQRDLVADISSGDGRTTNYADFAKGRFTISRDNIKNTVFLRMTNLKPEDTAVYYCNTFVSFVGIARSWGQGTQVTVSS
chain: ESKYGPPCPPCPAPEAAGGPSVFLFPPKPKDTLMISRTPEVTCVVVDVSQEDPEVQFNWYVDGVEVHNAKTKPREEQFNSTYRVVSVLTVLHQDWLNGKEYKCKVSNKGLPSSIEKTISKAKGQPREPQVCTLPPSQEEMTKNQVSLSCAVKGFYPSDIAVEWESNGQPENNYKTTPPVLDSDGSFFLVSRLTVDKSRWQEGNVFSCSVMHEALHNRFTQKSLSLSL
light: DIVMTQSPDSLAVSLGERATINCKSSQSLLNSRTRKNYLAWYQQKPGQPPKLLIYWASTRESGVPDRFSGSGSGTDFTLTISSLQAEDVAVYYCTQSFILRTFGQGTKVEIK
For the molecule B3, the binding result in assay [1] was “binds”.

B4: Fab-Knob+CEA-Hole (101) (bispecific antibody, human IgG4 S228P, kappa, F234A L235A)
heavy: EVKLLESGGGLVQPKGSLKLSCAASGFTFNTYAMNWVRQAPGKGLEWVARIRSKYNNYATYYADSVKDRFTISRDDSQSILYLQMNNLKTEDTAMYYCVRHGNFGNSYVSWFAYWGQGTLVTVSSASTKGPSVFPLAPCSRSTSESTAALGCLVKDYFPEPVTVSWNSGALTSGVHTFPAVLQSSGLYSLSSVVTVPSSSLGTKTYTCNVDHKPSNTKVDKRVESKYGPPCPPCPAPEAAGGPSVFLFPPKPKDTLMISRTPEVTCVVVDVSQEDPEVQFNWYVDGVEVHNAKTKPREEQFNSTYRVVSVLTVLHQDWLNGKEYKCKVSNKGLPSSIEKTISKAKGQPREPQVYTLPPCQEEMTKNQVSLWCLVKGFYPSDIAVEWESNGQPENNYKTTPPVLDSDGSFFLYSRLTVDKSRWQEGNVFSCSVMHEALHNHYTQKSLSLSL
chain: EVQLVESGGGFVQAGESLTLSCTSSTLTFTPYRMAWYRQAPGKQRDLVADISSGDGRTTNYADFAKGRFTISRDNIKNTVFLRMTNLKPEDTAVYYCNTFVSFVGIARSWGQGTQVTVSSESKYGPPCPPCPAPEAAGGPSVFLFPPKPKDTLMISRTPEVTCVVVDVSQEDPEVQFNWYVDGVEVHNAKTKPREEQFNSTYRVVSVLTVLHQDWLNGKEYKCKVSNKGLPSSIEKTISKAKGQPREPQVCTLPPSQEEMTKNQVSLSCAVKGFYPSDIAVEWESNGQPENNYKTTPPVLDSDGSFFLVSRLTVDKSRWQEGNVFSCSVMHEALHNRFTQKSLSLSL
light: QAVVTQESALTTSPGETVTLTCRSSTGAVTTSNYANWVQEKPDHLFTGLIGGTNKRAPGVPARFSGSLIGDKAALTITGAQTEDEAIYFCALWYSNLWVFGGGTKVEIKRTVAAPSVFIFPPSDEQLKSGTASVVCLLNNFYPREAKVQWKVDNALQSGNSQESVTEQDSKDSTYSLSSTLTLSKADYEKHKVYACEVTHQGLSSPVTKSFNRGEC
On to B4, for which the binding result with Insulin (abs42019847) was “no binding”.
